According to US20230399417A1 (Genentech, published 2023):
Results are given in words; binding and its absence hold for the method and conditions named. Some entries that bind do so weakly or less than the wild type.

Chains of the proteins cited; added tags and fusions are not shown. Lines headed by an entry give the natural chain unless they say otherwise; changes in a name come on top.
UniProt Q14116: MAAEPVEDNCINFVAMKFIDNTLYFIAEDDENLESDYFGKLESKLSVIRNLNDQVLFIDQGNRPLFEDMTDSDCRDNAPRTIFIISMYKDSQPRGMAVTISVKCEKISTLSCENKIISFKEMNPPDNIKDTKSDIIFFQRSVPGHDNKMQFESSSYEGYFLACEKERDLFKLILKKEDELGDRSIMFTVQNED
UniProt P57764: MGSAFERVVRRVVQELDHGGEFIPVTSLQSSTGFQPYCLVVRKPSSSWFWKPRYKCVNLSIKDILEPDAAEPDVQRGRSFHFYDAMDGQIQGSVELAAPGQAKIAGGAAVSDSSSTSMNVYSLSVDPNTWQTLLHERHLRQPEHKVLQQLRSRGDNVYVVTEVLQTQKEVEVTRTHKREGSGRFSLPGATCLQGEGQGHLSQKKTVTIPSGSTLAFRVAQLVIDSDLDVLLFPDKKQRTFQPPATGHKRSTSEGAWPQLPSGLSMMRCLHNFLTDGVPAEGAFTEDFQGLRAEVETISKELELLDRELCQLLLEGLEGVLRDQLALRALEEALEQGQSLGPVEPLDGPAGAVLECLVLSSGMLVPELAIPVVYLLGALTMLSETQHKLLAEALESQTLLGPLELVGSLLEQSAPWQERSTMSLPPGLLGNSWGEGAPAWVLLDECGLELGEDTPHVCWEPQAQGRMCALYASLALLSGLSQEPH
UniProt P01584: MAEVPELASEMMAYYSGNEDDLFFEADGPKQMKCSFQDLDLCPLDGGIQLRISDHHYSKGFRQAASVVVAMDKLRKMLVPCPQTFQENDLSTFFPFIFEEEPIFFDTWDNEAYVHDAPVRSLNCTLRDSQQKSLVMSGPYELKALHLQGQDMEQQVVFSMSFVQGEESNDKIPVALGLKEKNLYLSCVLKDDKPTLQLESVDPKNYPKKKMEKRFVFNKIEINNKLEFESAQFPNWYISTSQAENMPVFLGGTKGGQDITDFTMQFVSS
UniProt Q9D8T2: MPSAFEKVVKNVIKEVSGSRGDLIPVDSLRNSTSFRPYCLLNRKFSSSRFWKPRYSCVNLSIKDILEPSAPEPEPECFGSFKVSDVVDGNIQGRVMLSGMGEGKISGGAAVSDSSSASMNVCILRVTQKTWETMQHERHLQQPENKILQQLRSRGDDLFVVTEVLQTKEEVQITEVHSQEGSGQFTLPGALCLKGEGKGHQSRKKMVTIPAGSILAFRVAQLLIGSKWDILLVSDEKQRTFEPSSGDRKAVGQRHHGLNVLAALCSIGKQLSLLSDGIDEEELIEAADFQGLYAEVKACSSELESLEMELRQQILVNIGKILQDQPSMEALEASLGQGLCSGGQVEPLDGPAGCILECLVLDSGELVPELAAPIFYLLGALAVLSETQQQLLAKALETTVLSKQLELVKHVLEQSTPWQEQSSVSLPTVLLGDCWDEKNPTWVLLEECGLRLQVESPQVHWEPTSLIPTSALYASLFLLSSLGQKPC
UniProt P10749: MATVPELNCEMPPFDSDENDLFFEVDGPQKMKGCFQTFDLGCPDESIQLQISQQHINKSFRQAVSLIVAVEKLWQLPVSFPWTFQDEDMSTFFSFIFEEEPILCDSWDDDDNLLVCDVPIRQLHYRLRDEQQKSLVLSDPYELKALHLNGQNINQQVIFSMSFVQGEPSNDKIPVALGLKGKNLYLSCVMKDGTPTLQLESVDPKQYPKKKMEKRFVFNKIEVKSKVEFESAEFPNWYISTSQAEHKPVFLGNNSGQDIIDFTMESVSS
UniProt P70343: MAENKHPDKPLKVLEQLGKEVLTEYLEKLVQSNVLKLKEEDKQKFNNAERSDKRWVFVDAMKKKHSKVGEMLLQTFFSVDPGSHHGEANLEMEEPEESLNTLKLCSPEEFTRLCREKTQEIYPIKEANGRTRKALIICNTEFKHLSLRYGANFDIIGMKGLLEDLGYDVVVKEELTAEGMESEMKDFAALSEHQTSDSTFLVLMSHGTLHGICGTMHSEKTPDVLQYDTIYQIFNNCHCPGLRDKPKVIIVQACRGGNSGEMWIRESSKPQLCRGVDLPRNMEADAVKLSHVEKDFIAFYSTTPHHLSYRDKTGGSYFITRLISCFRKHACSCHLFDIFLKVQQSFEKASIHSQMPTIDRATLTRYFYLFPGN

Assays:
[1] = molecular target: h/mIL18 peptide (cleavage product of IL-18) (human/mouse (h/mIL18)) (UniProt Q14116); assay: ELISA, biotinylated peptide on neutravidin plate, IgG (FIG. 3C)
[2] = molecular target: T1, hGsdmd peptide (cleavage product of human GSDMD) (human) (UniProt P57764); assay: as above
T1 sequence (peptide, biotinylated, looked up): HNFLTD

[3] = molecular target: hIL1β.A peptide (noncanonical cleavage product of human IL-1β) (human) (UniProt P01584); assay: as above
[4] = molecular target: hIL1β.B peptide (canonical cleavage product of human IL-1β) (human) (UniProt P01584); assay: as above
[5] = molecular target: T2, mGsdmd peptide (cleavage product of mouse GSDMD) (mouse) (UniProt Q9D8T2); assay: as above
T2 sequence (peptide, biotinylated, looked up): LSLLSD

[6] = molecular target: T3, mIL1β.A peptide (noncanonical cleavage product of mouse IL-1β) (mouse) (UniProt P10749); assay: as above
T3 sequence (peptide, biotinylated, looked up): LFFEVD

[7] = molecular target: T4, mIL1β.B peptide (canonical cleavage product of mouse IL-1β) (mouse) (UniProt P10749); assay: as above
T4 sequence (peptide, biotinylated, looked up): NLLVCD

[8] = molecular target: T5, Casp11 peptide (cleavage product of caspase-11) (mouse) (UniProt P70343); assay: ELISA, biotinylated peptide on neutravidin plate, IgG (FIG. 3D)
T5 sequence (peptide, biotinylated, looked up): RNMEAD

Measured: binding

B1: CJ11 (antibody, V domains shown)
VH: QSVEESGGGLVTPGTPLTLTCTVSGIDLSRYAMSWVRQAPGKGLEWIGIFGSLGGIFYASWAKGRFTISKTSPTTVDLKITSPTTEDTATYFCARMPYTTDRDFWGPGTLVTVSS
VL: DIVMTQTPSSTSAAVGGTVTITCQASQSVANNNYLKWYQQKRGQPPKQLIYSVSTLASGVPSRFKGSGSGTQFTLTISDLECDDAATYYCSGYFNNNIGAFGGGTKLEIKG
binds: [1] | [2] | [3] | [4] | [5] | [6] | [7] | [8]
